Data from patent US20210214410A1 (Stanford University, published 2021).
No constants are given. Whether binding was seen depends on the method and setting. Some binding calls cover weakened binding; strength is not graded here.

Target: T1, human interleukin 13 receptor alpha 2 (IL-13Rα2), biotinylated (human) (UniProt Q14627)
T1 sequence (biotinylated (site not stated), looked up): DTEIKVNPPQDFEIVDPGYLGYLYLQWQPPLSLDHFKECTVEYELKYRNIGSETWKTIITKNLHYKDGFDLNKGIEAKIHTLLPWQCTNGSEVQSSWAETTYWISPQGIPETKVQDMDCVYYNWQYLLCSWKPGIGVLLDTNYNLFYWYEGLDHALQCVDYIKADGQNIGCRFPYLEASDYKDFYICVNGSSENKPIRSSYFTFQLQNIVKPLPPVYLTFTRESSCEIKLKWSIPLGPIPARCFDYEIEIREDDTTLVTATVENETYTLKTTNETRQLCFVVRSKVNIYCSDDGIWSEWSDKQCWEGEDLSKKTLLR
Assay: told in words; SPR on captured biotinylated receptor (FIG. 2)

B1: IL-13 variant C11 (IL-13Rα2-selective IL-13 superkine; L10H, R86T, D87G, T88R, R108K) (ligand)
chain: PGPVPPSTAHRELIEELVNITQNQKAPLCNGSMVWSINLTAGMYCAALESLINVSGCSAIEKTQRMLSGFCPHKVSAGQFSSLHVTGRKIEVAQFVKDLLLHLKKLFKEGQFNHHHHHH
notes: the first is used here; Made in insect Hi5 cells; also called polypeptide C11
binding: binds
